From patent US20160257763A1 come the findings set out here.

No constants are given. Whether binding was seen depends on the method and setting. Some entries that bind do so weakly or less than the wild type.

In assay [1] the target is EGFR expressed on the surface of A549, BxPc3 and U87 cells (UniProt P00533). Description: flow cytometry on A549, BxPc3 and U87 cells. (In flow cytometry, cells or beads pass a laser one at a time.)
Assay [2] has as its target Recombinant human EGFR-ED (human) (UniProt P00533). Description: SPR (ProteOn XPR36); v1323 captured on immobilized anti-human IgG, recombinant human EGFR-ED injected as analyte.

B1: v1323, monovalent anti-EGFR antibody (EG2) (Fc fusion, not shown: a dimerising Fc or GST; large carriers; small tags and cut ends)
VHH: QVKLEESGGGLVQAGDSLRVSCAASGRDFSDYVMGWFRQAPGKEREFVAAISRNGLTTRYADSVKGRFTISRDNDKNMVYLQMNSLKPEDTAVYYCAVNSAGTYVSPRSREYDYWGQGTQVTVSS
Turning to B1, the binding entry in assay [1] and in assay [2] was “binds” in each case.
